Source: PubChem BioAssay AID912 (NCATS, 2007).

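A cell-based FRET test of anthrax lethal toxin entry, tracked through the 460 nm emission signal; the cell line is not named here. Each compound was tested as a concentration series from about 0.0005 to 40 µM. The number is the fitted AC50 of the 460 nm signal alone; lower values mean a more potent effect. A falling signal goes with compounds filed as inhibitors or cytotoxic, a rising one with activators or fluorescent compounds (inferred from the filed classes).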

Values are in µM. Common to all entries: measured here: 460 nm channel. This is a side read-out of the assay, for part of the compounds, not drawn at random. A potency from a partial, single-point or poor curve is only a rough figure. The first word of each remark tells which way the curve ran; it can be opposite to the aim of the assay.

| Compound | AC50 (µM) | curve as filed |
|---|---|---|
| `COc1cc(Cl)c(S(=O)(=O)N2CCN(Cc3ccc4c(c3)OCO4)CC2)cc1Cl` | 12.59 | falling, partial curve |
| `CC(O)CNc1nc2ccccc2n1-c1ncnc2sc3c(c12)CCC3` (configuration not stated) | 10 | falling, partial curve |
| `CN(C)c1ccc(-c2nc(N(C)C)c3ccccc3n2)cc1` | 31.62 | falling, single point |
| `COc1c(F)c(F)c(C(=O)Nc2ccccc2N2CCN(C(C)=O)CC2)c(F)c1F` | 10 | rising, single point |
| `COc1cc2[nH]c3c(=O)n(CCN4CCCCC4)cnc3c2cc1OC` | 2.512 | falling, full curve, poor fit |
| `CNCCCCCCCCSc1nc(C(C)C)ccc1C(=O)c1cccs1` | 31.62 | falling, single point |
| `CC1=CCC2C(=O)N(c3ccc(Br)cc3C)C(=O)C2C1` (configuration not stated) | 0.1585 | falling, full curve, poor fit |
| `Cc1ccc(S(=O)(=O)O[C@H]2C[C@@H](C(C)(C)C)CC[C@@H]2c2ccccc2)cc1` | 3.981 | falling, single point |
| `COc1ccc(-c2noc(C3CCCN(S(=O)(=O)c4cccc(Cl)c4C)C3)n2)cc1OC` (configuration not stated) | 5.012 | falling, single point |
| `c1ccc(-c2csc(N3CCN(c4ccccn4)CC3)n2)cc1` | 15.85 | falling, partial curve |
| `CC1=CC(=O)c2ccccc2C1=O` | 3.162 | rising, partial curve |
| `COC(=O)CCCc1nc2ccccc2s1` | 31.62 | falling, single point |
| `CCOC(=O)CNS(=O)(=O)c1ccc(C(=O)O)cc1` | 0.003162 | falling, full curve, poor fit |
| `CCOc1cc(C(=S)N2CCN(C)CC2)ccc1OCC(=O)N1CCOCC1` | 0.1585 | falling, partial curve |
| `CCCc1cc(C(=O)N2CCN(S(=O)(=O)c3ccc(OC)c(OC)c3)CC2)cs1` | 2.512 | rising, single point |
| `O=C(CN1C(=O)C2CC=CCC2C1=O)Nc1nccs1` (configuration not stated) | 6.31 | rising, single point |
| `NS(=O)(=O)c1ccc(N=Nc2ccc(O)c(C(=O)O)c2)cc1` | 3.162 | falling, single point |
| `S=C(c1ccc(-c2cccc(Cl)c2)o1)N1CCOCC1` | 31.62 | falling, single point |
| `CC(C)c1nnc(NC(=O)CCC(=O)NCc2ccco2)s1` | 0.1259 | falling, partial curve |
| `OCC1OC(C#Cc2ccccc2)C=CC1OCc1ccccc1` (configuration not stated) | 5.012 | rising, single point |
| `Cn1nnc(NC(=O)c2ccco2)n1` | 0.3981 | rising, partial curve |
| `O=c1c(-c2ccc(F)cc2)nc2cnc(N3CCNCC3)nc2n1Cc1cccs1` | 0.631 | rising, full curve |
| `COc1ccccc1CNc1nc(-c2ccc(N(C)C)cc2)nc2ccccc12` | 25.12 | rising, single point |
| `CC1Cc2ccccc2N1C(=O)Cn1c(=O)oc2cc(S(=O)(=O)NC3CCCC3)ccc21` (configuration not stated) | 19.95 | falling, single point |
| `Cc1cc(CN2CCN(CCC#N)CC2)c(O)c(C2(C)CCCCC2)c1` | 12.59 | falling, partial curve |
| `Cc1cc(NC(=O)Nc2cccc3ccccc23)no1` | 15.85 | falling, single point |
| `Cc1onc(-c2c(F)cccc2Cl)c1C(=O)Nc1nc2c(s1)CCCC2` | 5.012 | falling, single point |
| `Cc1cccc(N2CCN(C(=O)c3ccc(CS(=O)(=O)c4ccccc4C)o3)CC2C)c1` (configuration not stated) | 3.162 | falling, full curve |
| `COc1ccc(CN(C2CCCC2)S(=O)(=O)c2ccc(-n3cnnn3)c(OC)c2)cc1OC` | 0.7943 | falling, full curve, poor fit |
| `CCOc1ccccc1N1CC(O)=C(c2nc3ccccc3s2)C1=N` | 31.62 | falling, single point |
| `COc1ccccc1OCC(=O)Nc1ccc(S(=O)(=O)N2CCCCCC2)cc1` | 0.01 | falling, full curve |
| `Cn1nc(C(=O)N2CCOCC2)c2ccccc2c1=O` | 3.981 | rising, full curve, poor fit |
| `Cc1nn(Cc2ccc(Cl)cc2)c(C)c1NC(=O)c1noc2c1CCCCC2` | 31.62 | falling, single point |
| `COCCn1c(=O)c(CCc2ccccc2)nc2cnc(Oc3ccc(OC)cc3)nc21` | 15.85 | falling, partial curve |
| `CN1CCN([C@@H](c2ccccc2)c2ccc(Cl)cc2)CC1` | 12.59 | falling, single point |
| `CCOC(=O)c1c(NC(=O)OC)sc(C(=O)N(C)C)c1C` | 3.981 | falling, partial curve |
| `O=C1c2ccccc2C(Cc2ccncc2)(Cc2ccncc2)c2ccccc21` | 12.59 | falling, single point |
| `Cc1noc(C)c1S(=O)(=O)N(CC(=O)Nc1ccc2c(c1)OCCO2)c1ccc(C(C)C)cc1` | 1.995 | falling, full curve |
| `O=C(O)c1ccc([N+](=O)[O-])c(P(=O)(O)O)c1` | 1 | falling, single point |
| `COc1ccc(C[C@H](N)C(=O)N[C@@H]2[C@H](O)[C@H](n3cnc4c(N(C)C)ncnc43)O[C@@H]2CO)cc1` | 6.31 | rising, partial curve, poor fit |
| `NC(=O)C1(N2CCCCC2)CCN(C(=O)CSc2nc(C(F)(F)F)cc(=O)[nH]2)CC1` | 0.03981 | rising, full curve, poor fit |
| `Cn1c(NCc2ccco2)nc2ccccc21` | 0.631 | falling, partial curve |
| `O=C(CSc1nnc(-c2ccncc2)n1-c1ccc(Cl)cc1)N1CCOCC1` | 0.003162 | rising, full curve |
| `O=c1oc2c3c4c(cc2c2c1CCC2)OCCN4CCC3` | 12.59 | rising, partial curve |
| `O=C(O)c1cccc(S(=O)(=O)Nc2ccc3oc(=O)sc3c2)c1` | 2.512 | falling, partial curve |
| `CCOCCCNC(=O)C(NC(=O)c1ccccn1)c1ccc(C)cc1` (configuration not stated) | 5.012 | falling, single point |
| `CCC(=O)Oc1ccc(C/C(=N\O)c2ccc(O)cc2O)o1` | 25.12 | falling, single point |
| `Cc1ccc(-n2nnnc2SCC(=O)c2cc(C)n(CC3CCCO3)c2C)cc1` (configuration not stated) | 0.01 | falling, full curve, poor fit |
| `Nc1nc2c(cnn2CCc2ccccc2)c2nc(-c3ccco3)nn12` | 12.59 | falling, single point |
| `COC(=O)c1ccc(OC)c(CSc2nnc(COc3ccccc3)o2)c1` | 7.943 | falling, partial curve |

The first 5 entries again:

* COc1cc(Cl)c(S(=O)(=O)N2CCN(Cc3ccc4c(c3)OCO4)CC2)cc1Cl | AC50 12.59 µM (falling, partial curve)
* CC(O)CNc1nc2ccccc2n1-c1ncnc2sc3c(c12)CCC3 (configuration not stated) | AC50 10 µM (falling, partial curve)
* CN(C)c1ccc(-c2nc(N(C)C)c3ccccc3n2)cc1 | AC50 31.62 µM (falling, single point)
* COc1c(F)c(F)c(C(=O)Nc2ccccc2N2CCN(C(C)=O)CC2)c(F)c1F | AC50 10 µM (rising, single point)
* COc1cc2[nH]c3c(=O)n(CCN4CCCCC4)cnc3c2cc1OC | AC50 2.512 µM (falling, full curve, poor fit)